According to paper PMC12547515:
Results are given in words; binding and its absence hold for the method and conditions named. Binding seen in cells or lysates may run through a third protein. Here binding means that the protein was enriched with, or labelled near, the bait; the list need not be complete.

Chains of the proteins cited; added tags and fusions are not shown.
UniProt Q96DX7: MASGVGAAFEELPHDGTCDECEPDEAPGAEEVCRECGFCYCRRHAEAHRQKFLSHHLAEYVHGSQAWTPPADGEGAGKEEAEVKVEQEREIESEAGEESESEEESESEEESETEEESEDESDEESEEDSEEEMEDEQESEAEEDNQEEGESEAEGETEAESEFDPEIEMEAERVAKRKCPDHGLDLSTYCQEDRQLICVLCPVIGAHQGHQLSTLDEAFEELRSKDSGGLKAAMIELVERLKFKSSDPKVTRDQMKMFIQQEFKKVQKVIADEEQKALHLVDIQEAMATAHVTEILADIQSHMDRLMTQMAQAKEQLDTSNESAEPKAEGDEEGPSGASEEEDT
UniProt P08670: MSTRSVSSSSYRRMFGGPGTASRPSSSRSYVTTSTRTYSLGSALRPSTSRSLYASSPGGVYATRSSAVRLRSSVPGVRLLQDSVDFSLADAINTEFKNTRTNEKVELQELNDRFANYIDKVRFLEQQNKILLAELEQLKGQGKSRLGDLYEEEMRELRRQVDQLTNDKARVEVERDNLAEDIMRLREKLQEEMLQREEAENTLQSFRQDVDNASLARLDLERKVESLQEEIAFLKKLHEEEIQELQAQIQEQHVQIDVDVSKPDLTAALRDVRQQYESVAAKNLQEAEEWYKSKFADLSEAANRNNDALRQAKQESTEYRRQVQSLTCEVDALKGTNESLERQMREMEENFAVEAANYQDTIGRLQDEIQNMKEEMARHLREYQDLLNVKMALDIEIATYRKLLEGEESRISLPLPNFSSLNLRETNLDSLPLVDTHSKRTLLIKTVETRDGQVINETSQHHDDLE

Molecular target: Tripartite motif-containing 44 (TRIM44), endogenous (human (endogenous in 769-P, Caki-1, OSRC-2, ACHN)) (UniProt Q96DX7)
Test: affinity purification with mass spectrometry; lysates of 769-P and Caki-1 cells immunoprecipitated with anti-TRIM44 antibody, SDS-PAGE, Coomassie bands cut out, LC-MS/MS

Substance: vimentin, endogenous (from UniProt P08670 1-466)
- binding: binds
